Some of the results follow. These are further read-outs of the screen, such as a control signal, another cell line or another target. No call is given for them. The list favours compounds with an active or inconclusive main result. The note in brackets gives the kind of curve behind each potency; many fits are weak.
Test: qHTS Assay for Lipid Storage Modulators in Drosophila S3 Cells;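 for cell number change: cells counted by Cell Tracker Red CMTPX staining in the red channel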
Settings: BODIPY lipid droplet fluorescence, 18-24 h; for cell number change: measured here: cell count max response, cells fed with added oleic acid
Method in brief: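 Drosophila S3 cells got compounds at several concentrations plus oleic acid (400 uM solution). Laser-scanning cytometry with 488 nm excitation read lipid droplets at 500-530 nm and cells at 575-640 nm. Percent activity was relative to 20 uM Triacsin C.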

[1] = measured here: cell number channel AC50, cells fed with added oleic acid
[2] = measured here: lipid fluorescence (Fed channel) AC50, cells fed with added oleic acid

Row | Compound | cell number change [%] | AC50 [1] | AC50 [2]
1 | O=[N+]([O-])c1ccccc1-c1ccc(C(=S)N2CCCC2)o1 | 57.4 | 20.6 µM [rising, single point] | 16.4 µM [rising, single point]
2 | COc1ccccc1CNC(=O)COC(=O)c1sc(C)nc1C | -7.57 |  | 20.6 µM [rising, single point]
3 | Cc1ccccc1C(=O)N1CCC(C(=O)Oc2ccc(C#N)cc2)CC1 | -7.46 |  | 0.58 µM [rising, single point]
4 | CCOC(=O)C(NC(=O)Nc1ccc(Cl)cn1)(Oc1ccccc1)C(F)(F)F (stereo not given) | -42.8 | 4.61 µM [falling, partial curve, poor fit] | 7.31 µM [falling, partial curve, poor fit]
5 | Cc1c(OCC(=O)N2CCN(c3ccccc3)CC2)ccc2c3c(c(=O)oc12)CCCC3 | 11.3 |  | 2.31 µM [falling, partial curve]
6 | CCOC(=O)NC1(C(F)(F)F)C(=O)NC(C)=C1C(=O)OC (stereo not given) | -1.8 |  | 0.206 µM [falling, full curve, poor fit]
7 | Cc1ccc(NC(=O)Nc2ccc(F)cc2)nc1 | -19.4 |  | 0.058 µM [rising, full curve, poor fit]
8 | COc1ccc(-n2cnc3cc(NCc4cccs4)ccc32)cc1 | -32.3 | 6.51 µM [falling, partial curve, poor fit] | 10.3 µM [falling, partial curve, poor fit]
9 | NC(=O)CCS(=O)(=O)CCN1CCCCC1 | -34.6 | 3.66 µM [falling, full curve] | 0.82 µM [falling, full curve]
10 | CCN(CC)C(=S)NC(=O)c1ccc(Cl)cc1Cl | -6.5 |  | 6.51 µM [rising, single point]
11 | COc1ccc(-c2nc3ccccc3o2)cc1OC | 33.3 | 29.1 µM [rising, single point] | 0.291 µM [rising, partial curve, poor fit]
12 | COc1cc(C(NC(C)=O)NC(C)=O)ccc1OCc1ccccc1 | -25.6 |  | 
13 | CCOc1ccc(C(C)=O)cc1CSc1nnc(-c2ccoc2C)n1N | 26.4 |  | 0.116 µM [rising, full curve, poor fit]
14 | Cc1ccc(C(=O)NCCN2CCNC2=O)cc1 | -12.1 |  | 0.00517 µM [falling, full curve, poor fit]
15 | CC(C)(CC(=O)O)CC(=O)O | 3.24 |  | 2.91 µM [rising, full curve]
16 | COc1ccc(OC)c(NC(=S)N2c3ccccc3CC2C)c1 (stereo not given) | -3.78 |  | 29.1 µM [falling, single point]
17 | O=C(NCCCO)NC12CC3CC(CC(C3)C1)C2 | -16.8 |  | 29.1 µM [falling, single point]
18 | O=C(Cn1cc(C(=O)c2cccs2)c2ccccc21)NCc1ccc2c(c1)OCO2 | 17.5 |  | 0.082 µM [falling, full curve, poor fit]
19 | CSc1nc2nc3c(cc2c(=O)n1-c1ccccc1C)CCCC3 | -28.7 |  | 
20 | O=C(CCNS(=O)(=O)c1ccccc1)N1CCCCCCC1 | -38.4 | 29.1 µM [falling, single point] | 2.59 µM [falling, partial curve]

Part of the list above, set out differently.
Row	Compound	cell number change [%]	AC50 [1]	AC50 [2]
9	NC(=O)CCS(=O)(=O)CCN1CCCCC1	-34.6	3.66 µM [falling, full curve]	0.82 µM [falling, full curve]
10	CCN(CC)C(=S)NC(=O)c1ccc(Cl)cc1Cl	-6.5		6.51 µM [rising, single point]
11	COc1ccc(-c2nc3ccccc3o2)cc1OC	33.3	29.1 µM [rising, single point]	0.291 µM [rising, partial curve, poor fit]
12	COc1cc(C(NC(C)=O)NC(C)=O)ccc1OCc1ccccc1	-25.6		
13	CCOc1ccc(C(C)=O)cc1CSc1nnc(-c2ccoc2C)n1N	26.4		0.116 µM [rising, full curve, poor fit]
14	Cc1ccc(C(=O)NCCN2CCNC2=O)cc1	-12.1		0.00517 µM [falling, full curve, poor fit]
15	CC(C)(CC(=O)O)CC(=O)O	3.24		2.91 µM [rising, full curve]
16	COc1ccc(OC)c(NC(=S)N2c3ccccc3CC2C)c1 (stereo not given)	-3.78		29.1 µM [falling, single point]
17	O=C(NCCCO)NC12CC3CC(CC(C3)C1)C2	-16.8		29.1 µM [falling, single point]
18	O=C(Cn1cc(C(=O)c2cccs2)c2ccccc21)NCc1ccc2c(c1)OCO2	17.5		0.082 µM [falling, full curve, poor fit]
19	CSc1nc2nc3c(cc2c(=O)n1-c1ccccc1C)CCCC3	-28.7		

Further structures.

Row | Compound | cell number change [%] | AC50 [1] | AC50 [2]
21 | N/C(=N\OC(=O)CCc1ccccc1)c1ccc(Cl)cc1 | -21.9 |  | 23.1 µM [falling, single point]
22 | Cc1ccc(C(=O)N/N=C\C2CC=CCC2)cc1[N+](=O)[O-] (stereo not given) | 12.7 |  | 
23 | CCCOc1ccc(C(=O)NCC(C)(C)N2CCOCC2)cc1 | 8.53 |  | 
24 | O=C(COC(=O)Cn1cnc2ccccc21)Nc1cccc([N+](=O)[O-])c1 | -55.4 | 8.2 µM [falling, single point] | 8.2 µM [falling, partial curve]
25 | CSc1ccc(CN(C)CC(=O)NC(=O)NCCC2=CCCCC2)cc1 | -26.8 |  | 16.4 µM [falling, single point]
26 | COc1ccc(CCn2c(C)cc(C(=O)COC(=O)c3cnc(C)cn3)c2C)cc1 | 17.2 |  | 
27 | C/C(=N\NC(=S)Nc1c(C)cccc1C)c1ccc(O)cc1 | -26 |  | 
28 | COc1cccc(NC(=O)CS(=O)(=O)c2cccc3nsnc23)c1 | 2.08 |  | 
29 | C=CCOc1c(Br)cc(/C=N/n2c(CC)n[nH]c2=S)cc1Br |  | 2.31 µM [falling, partial curve] | 2.06 µM [falling, partial curve]
30 | Cc1nnc(SCC(=O)c2c(N)n(Cc3ccccc3)c(=O)n(C)c2=O)n1C | 4.64 | 6.51 µM [falling, single point] | 6.51 µM [falling, single point]
31 | Cc1cc(C)n2nc(C(=O)N/N=C/c3cccs3)nc2n1 | -5.18 |  | 11.6 µM [falling, partial curve, poor fit]
32 | O=C(c1cc(=O)[nH]c2ccccc12)N1CCc2ccccc2C1 | 120 |  | 7.31 µM [rising, partial curve]
33 | N#C/C(=C\c1ccc(/C=C(/C#N)c2nn(CCO)c(N)c2C#N)cc1)c1nn(CCO)c(N)c1C#N | 7.87 |  | 2.91 µM [falling, partial curve, poor fit]
34 | O=C(N/N=C/c1ccc([N+](=O)[O-])o1)c1sc2ccccc2c1Cl | -6.69 |  | 18.4 µM [falling, single point]
35 | Cn1cnnc1SC1CCCCC1NS(=O)(=O)c1ccccc1 (stereo not given) | 18.7 |  | 
36 | CCCc1cc2c(=O)n(NC(=O)c3nn(C)cc3[N+](=O)[O-])c(C)nc2s1 | -11.1 |  | 29.1 µM [falling, single point]
37 | O=C(CSc1nnc(-c2cccnc2)n1Cc1ccco1)c1ccc(Br)cc1 | 29.1 | 0.291 µM [rising, full curve, poor fit] | 
38 | Cc1cccc(/C=N\Nc2nnc(-c3ccccc3)c(=O)[nH]2)c1 | 36.1 | 14.6 µM [rising, single point] | 
39 | COc1ccc(CC(=O)OCC(=O)NCCNC(=O)COC(=O)Cc2ccc(OC)cc2)cc1 | -11.6 |  | 
40 | COc1ccc(S(=O)(=O)NCc2csc(-c3cccnc3)n2)cc1 | 42 | 0.184 µM [rising, full curve, poor fit] | 0.164 µM [rising, full curve, poor fit]

Row | Compound | cell number change [%] | AC50 [1] | AC50 [2]
41 | C(#CCN1CCOCC1)COCCOC(c1ccccc1)c1ccccc1 | 41.6 | 29.1 µM [rising, single point] | 
42 | O=C(Nc1ccc(-c2csc(Nc3ccccc3)n2)cc1)c1cccc(C(F)(F)F)c1 | -51 | 29.1 µM [falling, single point] | 29.1 µM [falling, single point]
43 | CNc1cc(F)nc(F)n1 | -9.35 |  | 
44 | O=C(NCc1ccncc1)c1ccc2nc(Cc3ccccc3F)oc2c1 | -16.4 |  | 23.1 µM [falling, partial curve]
45 | Oc1[nH]c2ccc(Br)cc2c1N=NC(=S)N1CCOCC1 | -49.4 | 11.6 µM [falling, partial curve] | 7.31 µM [falling, partial curve]
46 | CNCCCCOc1ccccc1-c1ccccc1 |  | 0.651 µM [rising, partial curve] | 
47 | S=C(NCc1ccc(Cl)cc1)NC12CC3CC(CC(C3)C1)C2 | -24.8 |  | 25.9 µM [falling, single point]
48 | COc1cc2oc(=O)ccc2cc1[C@@H](O)[C@@H]1OC(C)(C)OC1(C)C | 5.65 |  | 0.82 µM [rising, partial curve, poor fit]
49 | Cc1ccc(C(=O)Nc2ccc(O)cc2C(=O)O)cc1 | -40.7 | 29.1 µM [falling, single point] | 29.1 µM [falling, single point]
50 | CCc1c(C2(O)CCCCC2)[nH]c2ccc(C(F)(F)F)cc12 | -40.7 | 18.4 µM [falling, single point] | 20.6 µM [falling, partial curve]
51 | O=C(NCCC(=O)N1CCN(Cc2c(F)cccc2Cl)CC1)c1ccc(Cl)cc1 | -43.3 | 29.1 µM [falling, single point] | 
52 | O=C(NCCc1ccc(F)cc1)c1ccc(S(=O)(=O)N2CCCCC2)cc1 |  |  | 4.61 µM [rising, partial curve]
53 | Cc1nn(CC(=O)N2CCCC2)c(=O)c2cc3cc(F)ccc3n12 | 58.1 | 23.1 µM [rising, single point] | 16.4 µM [rising, partial curve]
54 | COc1ccc([C@@H](C)NC(=O)c2ccc3oc(C(C)C)nc3c2)cc1 | 20.9 |  | 29.1 µM [rising, single point]
55 | FC(F)Oc1ccccc1C1CC(c2ccc(Br)s2)Nc2ncnn21 (stereo not given) | -11.4 |  | 29.1 µM [rising, partial curve, poor fit]
56 | O=C(NC(=S)Nc1nc(-c2ccc([N+](=O)[O-])cc2)cs1)c1ccco1 | -8.28 |  | 0.92 µM [falling, partial curve, poor fit]
57 | COc1cc(NS(=O)(=O)c2ccc(NC(=S)NC(=O)COc3ccccc3OC)cc2)nc(OC)n1 | -42.1 | 3.66 µM [falling, partial curve] | 6.51 µM [falling, partial curve]
58 | CN(C(=O)COC(=O)C(C)(C)Oc1ccc(Cl)cc1)c1c(N)n(Cc2ccccc2)c(=O)[nH]c1=O | -35.6 | 29.1 µM [falling, single point] | 29.1 µM [falling, single point]

Retrieved one by one from the entries so far, 2 records:
Row | Compound | cell number change [%] | AC50 [1] | AC50 [2]
48 | COc1cc2oc(=O)ccc2cc1[C@@H](O)[C@@H]1OC(C)(C)OC1(C)C | 5.65 |  | 0.82 µM [rising, partial curve, poor fit]
42 | O=C(Nc1ccc(-c2csc(Nc3ccccc3)n2)cc1)c1cccc(C(F)(F)F)c1 | -51 | 29.1 µM [falling, single point] | 29.1 µM [falling, single point]

— PubChem BioAssay AID2685 (National Center for Advancing Translational Sciences (NCATS), 2010)
